Data published in patent US7700553B2, “Selective inhibition of NF-κB activation by peptides designed to disrupt nemo oligomerization” (priority 2003, dated 2010).

Tested on: LPS-induced NF-κB activation in 70Z/3-C3 cells
Assay: NF-κB inhibition assay, second more stringent procedure (peptide washed out, 24 h growth before LPS)
Format: cell-based, murine
Conditions: 10 μM peptide
Excerpt: FIG. 4: Specific Inhibition of NF-κB Activation in Response to LPS Depends on a Few Mutations in the Hydrophobic Core of CC2 and LZ Coiled-Coils Left panels show a helical wheel diagram of CC2 (A) and LZ (B) peptides. The view is from the top the molecule. The (a) through (g) positions, which are an essential feature of coiled coil sequence (Vinson, 2002, Mol. Cell. Biol.) represent sequential positions in each peptide sequence. The first (a) and fourth (d) positions that are generally occupied by hydrophobic amino acids constitute the hydrophobic core for parallel as well as antiparallel-coiled coils. […] NF-κB activity was measured using the β-galactosidase assay. […]
FIG. 5: Inhibition of NF-κB Activation by the LZ Peptide Occurs Through the Formation of Specific Coiled-Coil Strands. […] NF-κB activity was measured using the β-galactosidase assay. […]

Question: For “B-CRQIKIWFQNRRMKWKKSKGMQRMKQLEDKVEELLSKNYHLENEVARLKKLVGER (N-terminal BODIPY label) [BODIPY-Ant-GCN4 (WT), control coiled-coil peptide that mimics the GCN4 leucine zipper, antennapedia fusion, reference compound]”, which “effect on LPS-induced NF-κB activation (in words)” value is on record?
Answer: no ability to inhibit NF-κB activation
